Assay results as given in the supplement of paper PMC6411743.
± gives the standard deviation of the averaged measurements. This is one part of the list.

Protein sequences, listed by entry. Tags and fused reporters are not part of them. Lines headed by an entry give the natural chain unless they say otherwise; changes in a name come on top.
UniProt Q9HBU6: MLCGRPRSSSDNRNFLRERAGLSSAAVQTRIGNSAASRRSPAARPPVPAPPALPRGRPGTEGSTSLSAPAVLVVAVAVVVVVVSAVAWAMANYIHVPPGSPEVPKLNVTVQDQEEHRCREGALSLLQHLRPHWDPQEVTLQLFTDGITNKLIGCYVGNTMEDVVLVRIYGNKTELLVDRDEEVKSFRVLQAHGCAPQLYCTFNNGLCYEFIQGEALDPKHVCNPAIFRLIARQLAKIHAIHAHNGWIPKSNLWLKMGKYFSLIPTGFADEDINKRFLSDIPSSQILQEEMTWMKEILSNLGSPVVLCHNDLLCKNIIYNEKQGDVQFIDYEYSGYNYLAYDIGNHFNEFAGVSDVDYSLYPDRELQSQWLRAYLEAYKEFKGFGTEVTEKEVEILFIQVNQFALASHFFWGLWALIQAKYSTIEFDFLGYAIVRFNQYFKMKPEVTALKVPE
UniProt Q9NQZ2: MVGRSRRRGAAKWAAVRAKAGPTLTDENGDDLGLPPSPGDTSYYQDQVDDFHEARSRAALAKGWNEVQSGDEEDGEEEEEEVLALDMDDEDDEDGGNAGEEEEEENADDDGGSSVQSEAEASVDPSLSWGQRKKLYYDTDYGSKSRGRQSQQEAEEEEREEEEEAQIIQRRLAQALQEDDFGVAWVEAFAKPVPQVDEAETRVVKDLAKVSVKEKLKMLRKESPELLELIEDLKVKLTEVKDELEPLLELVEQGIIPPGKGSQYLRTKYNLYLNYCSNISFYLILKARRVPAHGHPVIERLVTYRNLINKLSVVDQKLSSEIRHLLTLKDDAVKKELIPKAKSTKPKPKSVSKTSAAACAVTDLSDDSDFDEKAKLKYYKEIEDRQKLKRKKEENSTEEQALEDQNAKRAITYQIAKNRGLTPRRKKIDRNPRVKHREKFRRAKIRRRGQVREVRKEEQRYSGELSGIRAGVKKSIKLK
UniProt Q9HCS7: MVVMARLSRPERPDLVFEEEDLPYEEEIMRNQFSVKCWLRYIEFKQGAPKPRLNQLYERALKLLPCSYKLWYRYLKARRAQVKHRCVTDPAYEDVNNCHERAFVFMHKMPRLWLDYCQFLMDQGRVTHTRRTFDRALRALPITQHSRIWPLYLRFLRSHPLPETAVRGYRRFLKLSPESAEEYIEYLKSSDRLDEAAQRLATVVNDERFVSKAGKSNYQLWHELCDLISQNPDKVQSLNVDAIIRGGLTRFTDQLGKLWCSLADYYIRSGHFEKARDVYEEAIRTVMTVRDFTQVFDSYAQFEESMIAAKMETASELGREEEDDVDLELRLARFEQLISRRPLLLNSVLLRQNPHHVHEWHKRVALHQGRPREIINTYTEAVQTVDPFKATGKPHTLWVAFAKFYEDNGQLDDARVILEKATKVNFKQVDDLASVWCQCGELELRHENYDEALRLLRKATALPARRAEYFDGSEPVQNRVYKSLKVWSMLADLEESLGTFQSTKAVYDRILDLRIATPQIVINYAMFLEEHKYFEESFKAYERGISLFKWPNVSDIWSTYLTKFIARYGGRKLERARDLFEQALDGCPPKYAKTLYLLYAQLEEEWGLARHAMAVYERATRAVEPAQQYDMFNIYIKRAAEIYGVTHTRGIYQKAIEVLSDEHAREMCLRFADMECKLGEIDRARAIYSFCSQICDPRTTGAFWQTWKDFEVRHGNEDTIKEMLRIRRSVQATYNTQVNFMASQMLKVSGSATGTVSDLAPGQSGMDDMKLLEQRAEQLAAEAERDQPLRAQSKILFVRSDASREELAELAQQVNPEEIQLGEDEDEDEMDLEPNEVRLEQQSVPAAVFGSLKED
UniProt Q9NP66: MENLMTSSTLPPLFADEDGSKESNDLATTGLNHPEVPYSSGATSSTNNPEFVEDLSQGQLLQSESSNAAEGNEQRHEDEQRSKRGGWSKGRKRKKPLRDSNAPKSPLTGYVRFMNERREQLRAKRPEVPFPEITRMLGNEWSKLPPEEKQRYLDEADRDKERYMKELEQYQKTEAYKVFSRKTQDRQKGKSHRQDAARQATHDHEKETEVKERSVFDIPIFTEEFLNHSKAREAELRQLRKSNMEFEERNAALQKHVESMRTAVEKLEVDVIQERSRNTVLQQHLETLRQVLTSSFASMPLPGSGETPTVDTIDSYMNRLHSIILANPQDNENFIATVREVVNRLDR
UniProt Q9GZT9: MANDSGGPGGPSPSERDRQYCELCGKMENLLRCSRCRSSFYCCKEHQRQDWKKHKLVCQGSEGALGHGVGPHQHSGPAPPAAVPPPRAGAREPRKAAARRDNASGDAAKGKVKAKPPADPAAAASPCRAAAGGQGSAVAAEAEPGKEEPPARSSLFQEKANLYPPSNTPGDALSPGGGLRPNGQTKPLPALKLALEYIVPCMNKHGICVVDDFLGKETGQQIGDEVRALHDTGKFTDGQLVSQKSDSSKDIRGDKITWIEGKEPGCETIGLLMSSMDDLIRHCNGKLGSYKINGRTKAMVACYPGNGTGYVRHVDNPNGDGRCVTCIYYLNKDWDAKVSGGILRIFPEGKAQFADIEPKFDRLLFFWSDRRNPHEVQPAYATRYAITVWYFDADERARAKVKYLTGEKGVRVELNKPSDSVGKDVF
UniProt Q9HAU5: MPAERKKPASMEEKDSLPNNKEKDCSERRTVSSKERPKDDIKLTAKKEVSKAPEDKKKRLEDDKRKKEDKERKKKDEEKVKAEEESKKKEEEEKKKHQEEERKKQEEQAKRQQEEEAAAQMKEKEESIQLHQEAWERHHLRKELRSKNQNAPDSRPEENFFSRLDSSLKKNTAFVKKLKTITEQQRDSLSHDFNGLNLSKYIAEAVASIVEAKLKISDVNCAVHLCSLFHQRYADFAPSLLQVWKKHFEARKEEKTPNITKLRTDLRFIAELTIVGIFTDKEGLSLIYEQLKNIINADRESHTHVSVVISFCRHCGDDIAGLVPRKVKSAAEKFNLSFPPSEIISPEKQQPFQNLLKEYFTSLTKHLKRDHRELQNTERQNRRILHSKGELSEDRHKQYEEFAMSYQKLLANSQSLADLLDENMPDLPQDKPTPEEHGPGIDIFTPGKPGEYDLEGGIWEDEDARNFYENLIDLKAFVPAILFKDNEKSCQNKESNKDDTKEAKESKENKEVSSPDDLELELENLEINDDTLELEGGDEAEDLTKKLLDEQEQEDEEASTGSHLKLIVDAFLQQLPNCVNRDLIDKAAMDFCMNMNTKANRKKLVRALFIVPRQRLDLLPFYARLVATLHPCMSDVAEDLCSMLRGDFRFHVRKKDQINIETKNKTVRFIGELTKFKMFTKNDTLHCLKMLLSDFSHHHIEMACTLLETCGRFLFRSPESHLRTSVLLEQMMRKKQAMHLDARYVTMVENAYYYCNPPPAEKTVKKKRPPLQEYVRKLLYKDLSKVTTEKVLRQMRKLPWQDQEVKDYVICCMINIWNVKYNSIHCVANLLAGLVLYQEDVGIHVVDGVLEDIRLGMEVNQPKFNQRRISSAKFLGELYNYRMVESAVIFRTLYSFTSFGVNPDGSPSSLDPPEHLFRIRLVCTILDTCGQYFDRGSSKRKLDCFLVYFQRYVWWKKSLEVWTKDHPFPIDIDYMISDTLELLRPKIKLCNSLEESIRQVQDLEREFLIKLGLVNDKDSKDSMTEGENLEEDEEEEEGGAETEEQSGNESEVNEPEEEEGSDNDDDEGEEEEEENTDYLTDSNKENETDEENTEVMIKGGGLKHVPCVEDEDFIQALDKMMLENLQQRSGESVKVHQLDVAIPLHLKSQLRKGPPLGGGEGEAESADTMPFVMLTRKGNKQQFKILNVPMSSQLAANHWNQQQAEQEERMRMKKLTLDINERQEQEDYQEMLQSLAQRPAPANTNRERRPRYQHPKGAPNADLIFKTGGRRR
UniProt Q9NNW7, whole entry: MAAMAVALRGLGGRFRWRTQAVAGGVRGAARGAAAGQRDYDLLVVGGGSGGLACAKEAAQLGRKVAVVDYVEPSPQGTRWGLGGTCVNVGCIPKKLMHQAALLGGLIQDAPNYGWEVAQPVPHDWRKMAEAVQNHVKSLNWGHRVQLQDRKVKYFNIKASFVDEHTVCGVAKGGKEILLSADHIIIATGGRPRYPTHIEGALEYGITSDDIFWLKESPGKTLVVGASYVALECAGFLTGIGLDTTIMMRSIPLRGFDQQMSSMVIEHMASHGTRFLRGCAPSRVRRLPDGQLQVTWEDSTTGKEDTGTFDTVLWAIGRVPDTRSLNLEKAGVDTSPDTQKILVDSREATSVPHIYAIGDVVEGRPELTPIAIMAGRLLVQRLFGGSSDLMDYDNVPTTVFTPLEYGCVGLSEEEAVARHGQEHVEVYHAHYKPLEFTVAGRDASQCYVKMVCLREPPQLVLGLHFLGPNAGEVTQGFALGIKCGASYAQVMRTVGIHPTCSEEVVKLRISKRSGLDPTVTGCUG
UniProt Q9H2J4: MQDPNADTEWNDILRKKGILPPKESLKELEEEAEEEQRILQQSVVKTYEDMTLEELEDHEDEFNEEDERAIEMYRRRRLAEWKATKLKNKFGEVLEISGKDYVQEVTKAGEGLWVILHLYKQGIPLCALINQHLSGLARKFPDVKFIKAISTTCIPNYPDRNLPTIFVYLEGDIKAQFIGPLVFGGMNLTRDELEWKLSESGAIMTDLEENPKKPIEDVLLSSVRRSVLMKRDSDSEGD
UniProt Q9H7Z7: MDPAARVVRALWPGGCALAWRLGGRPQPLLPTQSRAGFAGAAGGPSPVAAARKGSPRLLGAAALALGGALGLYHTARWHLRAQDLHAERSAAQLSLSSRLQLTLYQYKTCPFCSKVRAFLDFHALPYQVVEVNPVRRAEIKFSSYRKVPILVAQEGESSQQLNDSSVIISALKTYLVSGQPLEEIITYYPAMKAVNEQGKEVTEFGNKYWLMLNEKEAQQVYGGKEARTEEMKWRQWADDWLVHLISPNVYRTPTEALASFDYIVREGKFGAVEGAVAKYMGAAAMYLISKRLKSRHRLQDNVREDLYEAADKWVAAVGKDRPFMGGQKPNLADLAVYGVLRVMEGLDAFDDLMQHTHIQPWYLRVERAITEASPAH
UniProt Q9H9A7: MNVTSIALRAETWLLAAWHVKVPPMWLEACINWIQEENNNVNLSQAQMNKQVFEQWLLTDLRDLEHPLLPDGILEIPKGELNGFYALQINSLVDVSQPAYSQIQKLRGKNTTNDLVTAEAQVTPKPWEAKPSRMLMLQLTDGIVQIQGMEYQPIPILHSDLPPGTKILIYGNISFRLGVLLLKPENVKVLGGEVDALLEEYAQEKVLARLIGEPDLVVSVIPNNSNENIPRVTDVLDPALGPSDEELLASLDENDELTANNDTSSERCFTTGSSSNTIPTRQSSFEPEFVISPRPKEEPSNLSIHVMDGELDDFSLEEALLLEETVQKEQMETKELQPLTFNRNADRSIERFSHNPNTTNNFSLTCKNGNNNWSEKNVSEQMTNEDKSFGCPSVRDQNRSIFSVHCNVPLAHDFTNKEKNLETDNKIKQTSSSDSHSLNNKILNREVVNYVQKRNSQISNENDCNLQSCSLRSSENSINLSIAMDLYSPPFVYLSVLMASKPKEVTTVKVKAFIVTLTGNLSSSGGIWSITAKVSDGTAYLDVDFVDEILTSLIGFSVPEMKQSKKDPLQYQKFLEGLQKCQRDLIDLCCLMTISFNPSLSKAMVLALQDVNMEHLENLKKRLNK
UniProt Q9NQE9: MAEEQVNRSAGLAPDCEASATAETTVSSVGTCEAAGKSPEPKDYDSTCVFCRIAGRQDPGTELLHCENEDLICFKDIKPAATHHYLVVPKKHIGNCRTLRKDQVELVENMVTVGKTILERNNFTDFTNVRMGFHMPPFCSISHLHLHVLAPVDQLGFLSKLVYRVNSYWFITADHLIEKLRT
UniProt Q9H078: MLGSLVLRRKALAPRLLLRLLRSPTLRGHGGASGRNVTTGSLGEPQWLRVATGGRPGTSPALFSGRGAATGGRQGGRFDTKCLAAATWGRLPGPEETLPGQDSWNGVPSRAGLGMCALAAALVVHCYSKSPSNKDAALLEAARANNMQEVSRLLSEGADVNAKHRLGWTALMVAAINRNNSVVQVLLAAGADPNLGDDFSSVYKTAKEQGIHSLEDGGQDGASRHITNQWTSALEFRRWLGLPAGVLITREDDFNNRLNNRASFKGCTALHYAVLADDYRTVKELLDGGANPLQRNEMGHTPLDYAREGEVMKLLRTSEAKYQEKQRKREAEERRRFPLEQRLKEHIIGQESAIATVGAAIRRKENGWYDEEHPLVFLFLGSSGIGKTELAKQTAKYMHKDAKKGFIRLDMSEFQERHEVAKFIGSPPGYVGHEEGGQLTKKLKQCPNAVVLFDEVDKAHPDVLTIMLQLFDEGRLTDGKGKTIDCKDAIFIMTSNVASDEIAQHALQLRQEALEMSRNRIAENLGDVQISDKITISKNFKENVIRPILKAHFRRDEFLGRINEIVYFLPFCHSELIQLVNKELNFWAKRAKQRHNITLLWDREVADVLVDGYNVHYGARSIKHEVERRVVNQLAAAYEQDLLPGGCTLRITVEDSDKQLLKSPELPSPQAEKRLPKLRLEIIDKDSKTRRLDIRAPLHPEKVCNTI

compound: Nc1nc2c(ncn2[C@@H]2O[C@H](COP(=O)(O)OP(=O)(O)OP(=O)(O)O)[C@@H](O)[C@H]2O)c(=O)[nH]1 [guanosine triphosphate]; test: NP40-soluble protein abundance relative to vehicle (solubility fold change) (ratio); higher = more soluble protein in presence of GTP; details: concentration: 6mM
Method in brief: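 Values are fold changes against the detergent-processed vehicle, based on vsn-normalised intensities. Jurkat crude lysate was treated at eight concentrations from 0.1 to 10 mM (10 min at room temperature, then 3 min at 37 °C), solubilised with 0.8% NP40 and benzonase, ultracentrifuged and analysed by TMT-labelled LC-MS/MS over three independent experiments.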

Target	NP40-soluble protein abundance
UniProt Q9H1E5	0.873 ± 0.061
ETNK1 (UniProt Q9HBU6)	0.953 ± 0.097
UniProt Q9HC36	1.52 ± 0.18
ATG5 (UniProt Q9H1Y0)	0.948 ± 0.055
UTP3 (UniProt Q9NQZ2)	1.03 ± 0.083
UNK (UniProt Q9C0B0)	1.113 ± 0.0062
UniProt Q9H6R7 and related entries	1.09 ± 0.13
XAB2 (UniProt Q9HCS7)	0.997 ± 0.11
HMG20A (UniProt Q9NP66)	1.29 ± 0.12
NMRAL1 (UniProt Q9HBL8)	0.86 ± 0.019

same assay, conditions: concentration: 8mM

Target	NP40-soluble protein abundance
EGLN1 (UniProt Q9GZT9)	0.972 ± 0.029
UniProt Q9HD20 and related entries	0.892 ± 0.053
UniProt Q9H330 and related entries	0.81 ± 0.074
UPF2 (UniProt Q9HAU5)	0.983 ± 0.047
KLC2 (UniProt Q9H0B6)	0.977 ± 0.029
UniProt Q9HCE5	0.891 ± 0.039
UniProt Q9NNW7 and related entries	0.945 ± 0.052
PDCL3 (UniProt Q9H2J4)	1.07 ± 0.1
UniProt Q9H7Z7 and related entries	0.838 ± 0.046
PDF (UniProt Q9HBH1)	0.914 ± 0.089
UniProt Q9HDC9-2|Q9HDC9	0.861 ± 0.044
UniProt Q9H2D6-5|Q9H2D6 and related entries	1.03 ± 0.071
RMI1 (UniProt Q9H9A7)	1.03 ± 0.036
UniProt Q9GZT3 and related entries	0.957 ± 0.15
UniProt Q9H871	1.18 ± 0.19
UniProt Q9H3Z4 and related entries	0.883 ± 0.037
HINT3 (UniProt Q9NQE9)	0.918 ± 0.038
NANS (UniProt Q9NR45)	0.88 ± 0.04
CPVL (UniProt Q9H3G5)	0.904 ± 0.033

Target	NP40-soluble protein abundance
PELI2 (UniProt Q9HAT8)	0.956 ± 0.043
UniProt Q9H6Z4 and related entries	0.901 ± 0.12
GOLPH3 (UniProt Q9H4A6)	0.893 ± 0.066
UniProt Q9GZU8	0.917 ± 0.049
UniProt Q9HBE1 and related entries	1.38 ± 0.1
UniProt Q9H0X9 and related entries	1.39 ± 0.32
UniProt Q9H078 and related entries	1.02 ± 0.091
CWC22 (UniProt Q9HCG8)	0.964 ± 0.1
UniProt Q9H1E5	0.872 ± 0.11
ETNK1 (UniProt Q9HBU6)	0.964 ± 0.053
UniProt Q9HC36	1.55 ± 0.18
ATG5 (UniProt Q9H1Y0)	0.952 ± 0.062
UTP3 (UniProt Q9NQZ2)	1.02 ± 0.098
UNK (UniProt Q9C0B0)	1.15 ± 0.093
UniProt Q9H6R7 and related entries	1.09 ± 0.2
XAB2 (UniProt Q9HCS7)	0.962 ± 0.072
HMG20A (UniProt Q9NP66)	1.31 ± 0.21
NMRAL1 (UniProt Q9HBL8)	0.858 ± 0.031
